No constants are given. Whether binding was seen depends on the method and setting. In cells and extracts the contact can be indirect. These calls come from enrichment with a bait or labelling near it, and not all partners need be listed. Sequences can lack the tags named with a protein.

Sequences of proteins named here, by UniProt entry; tags and fusion partners are left off. Residues count along the entry.
UniProt P16403: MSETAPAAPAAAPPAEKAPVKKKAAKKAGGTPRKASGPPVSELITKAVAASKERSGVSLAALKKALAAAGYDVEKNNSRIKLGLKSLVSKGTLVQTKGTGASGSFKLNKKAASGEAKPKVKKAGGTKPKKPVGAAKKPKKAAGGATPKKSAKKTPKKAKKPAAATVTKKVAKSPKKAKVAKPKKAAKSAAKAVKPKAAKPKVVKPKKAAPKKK
UniProt P41586, residues 21-468: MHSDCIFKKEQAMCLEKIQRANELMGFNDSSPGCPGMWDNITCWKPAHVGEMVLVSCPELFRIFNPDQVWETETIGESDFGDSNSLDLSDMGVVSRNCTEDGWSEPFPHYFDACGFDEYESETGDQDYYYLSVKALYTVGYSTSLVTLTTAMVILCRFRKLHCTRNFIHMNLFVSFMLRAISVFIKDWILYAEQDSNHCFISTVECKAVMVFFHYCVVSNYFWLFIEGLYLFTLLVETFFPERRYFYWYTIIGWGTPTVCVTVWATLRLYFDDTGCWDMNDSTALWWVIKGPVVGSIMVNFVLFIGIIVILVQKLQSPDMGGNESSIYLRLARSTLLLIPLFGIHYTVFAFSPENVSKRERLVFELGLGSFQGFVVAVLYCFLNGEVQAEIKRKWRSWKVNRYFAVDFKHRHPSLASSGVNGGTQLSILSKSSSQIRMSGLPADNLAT
UniProt P20700: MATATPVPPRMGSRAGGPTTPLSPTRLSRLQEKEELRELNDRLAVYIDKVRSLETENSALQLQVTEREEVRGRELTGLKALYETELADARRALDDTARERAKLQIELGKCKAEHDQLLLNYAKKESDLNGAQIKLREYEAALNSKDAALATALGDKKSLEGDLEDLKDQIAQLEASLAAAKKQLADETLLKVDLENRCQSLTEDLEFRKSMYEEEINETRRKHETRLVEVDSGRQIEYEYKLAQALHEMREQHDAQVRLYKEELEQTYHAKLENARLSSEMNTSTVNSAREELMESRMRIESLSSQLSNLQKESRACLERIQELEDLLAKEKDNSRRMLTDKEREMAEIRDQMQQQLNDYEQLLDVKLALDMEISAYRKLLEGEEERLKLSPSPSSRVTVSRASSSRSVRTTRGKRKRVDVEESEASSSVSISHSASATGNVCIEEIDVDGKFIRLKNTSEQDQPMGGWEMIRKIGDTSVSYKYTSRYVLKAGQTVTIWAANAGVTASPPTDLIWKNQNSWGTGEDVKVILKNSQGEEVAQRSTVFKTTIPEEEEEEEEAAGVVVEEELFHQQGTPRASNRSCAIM
UniProt P26641: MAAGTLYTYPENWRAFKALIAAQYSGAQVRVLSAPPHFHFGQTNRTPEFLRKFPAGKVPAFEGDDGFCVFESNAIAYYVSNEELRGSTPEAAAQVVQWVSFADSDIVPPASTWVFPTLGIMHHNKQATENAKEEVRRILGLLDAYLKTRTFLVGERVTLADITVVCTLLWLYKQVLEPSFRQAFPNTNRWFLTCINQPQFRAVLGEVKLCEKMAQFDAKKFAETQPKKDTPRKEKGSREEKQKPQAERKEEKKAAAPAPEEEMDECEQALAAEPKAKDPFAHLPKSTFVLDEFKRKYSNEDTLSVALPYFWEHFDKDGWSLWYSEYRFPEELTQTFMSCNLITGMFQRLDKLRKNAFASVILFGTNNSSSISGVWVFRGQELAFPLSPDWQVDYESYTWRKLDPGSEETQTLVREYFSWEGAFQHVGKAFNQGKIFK
UniProt P04264: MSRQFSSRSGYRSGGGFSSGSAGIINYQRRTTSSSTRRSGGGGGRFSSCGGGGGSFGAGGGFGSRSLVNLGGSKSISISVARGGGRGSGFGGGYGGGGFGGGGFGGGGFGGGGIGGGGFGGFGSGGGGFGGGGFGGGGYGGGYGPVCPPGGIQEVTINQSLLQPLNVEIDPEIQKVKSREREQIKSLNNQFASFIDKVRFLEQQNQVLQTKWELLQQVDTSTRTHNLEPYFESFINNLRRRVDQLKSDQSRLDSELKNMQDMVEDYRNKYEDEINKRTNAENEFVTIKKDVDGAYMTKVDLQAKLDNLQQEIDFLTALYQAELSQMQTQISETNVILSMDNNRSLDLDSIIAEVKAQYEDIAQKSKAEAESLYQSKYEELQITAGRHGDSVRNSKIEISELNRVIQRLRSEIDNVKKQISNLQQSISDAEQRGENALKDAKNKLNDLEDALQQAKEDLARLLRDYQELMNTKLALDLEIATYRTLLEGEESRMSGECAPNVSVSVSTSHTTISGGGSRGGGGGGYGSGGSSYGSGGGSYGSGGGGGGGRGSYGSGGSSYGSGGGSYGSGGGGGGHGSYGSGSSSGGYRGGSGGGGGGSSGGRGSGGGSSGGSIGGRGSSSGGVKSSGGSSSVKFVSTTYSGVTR

Among the data in paper PMC8536140 are binding values, retold here.

Sequences and labels used below:
B1: Histone H1t (protein, UniProt P22492 1-207)
chain: MSETVPAASASAGVAAMEKLPTKKRGRKPAGLISASRKVPNLSVSKLITEALSVSQERVGMSLVALKKALAAAGYDVEKNNSRIKLSLKSLVNKGILVQTRGTGASGSFKLSKKVIPKSTRSKAKKSVSAKTKKLVLSRDSKSPKTAKTNKRAKKPRATTPKTVRSGRKAKGAKGKQQQKSPVKARASKSKLTQHHEVNVRKATSKK
B2: Keratin, type I cytoskeletal 9 (protein, UniProt P35527 1-623)
chain: MSCRQFSSSYLSRSGGGGGGGLGSGGSIRSSYSRFSSSGGGGGGGRFSSSSGYGGGSSRVCGRGGGGSFGYSYGGGSGGGFSASSLGGGFGGGSRGFGGASGGGYSSSGGFGGGFGGGSGGGFGGGYGSGFGGFGGFGGGAGGGDGGILTANEKSTMQELNSRLASYLDKVQALEEANNDLENKIQDWYDKKGPAAIQKNYSPYYNTIDDLKDQIVDLTVGNNKTLLDIDNTRMTLDDFRIKFEMEQNLRQGVDADINGLRQVLDNLTMEKSDLEMQYETLQEELMALKKNHKEEMSQLTGQNSGDVNVEINVAPGKDLTKTLNDMRQEYEQLIAKNRKDIENQYETQITQIEHEVSSSGQEVQSSAKEVTQLRHGVQELEIELQSQLSKKAALEKSLEDTKNRYCGQLQMIQEQISNLEAQITDVRQEIECQNQEYSLLLSIKMRLEKEIETYHNLLEGGQEDFESSGAGKIGLGGRGGSGGSYGRGSRGGSGGSYGGGGSGGGYGGGSGSRGGSGGSYGGGSGSGGGSGGGYGGGSGGGHSGGSGGGHSGGSGGNYGGGSGSGGGSGGGYGGGSGSRGGSGGSHGGGSGFGGESGGSYGGGEEASGSGGGYGGGSGKSSHS
B3: Dermcidin (protein, UniProt P81605 20-110)
chain: YDPEAASAPGSGNPCHEASAAQKENAGEDPGLARQAPKPRKQRSSLLEKGLDGAKKAVGGLGKLGKDAVEDLESVGKGAVHDVKDVLDSVL
B4: Ubiquitin carboxyl-terminal hydrolase 47 (enzyme, UniProt Q96K76 1-1375)
chain: MVPGEENQLVPKEDVFWRCRQNIFDEMKKKFLQIENAAEEPRVLCIIQDTTNSKTVNERITLNLPASTPVRKLFEDVANKVGYINGTFDLVWGNGINTADMAPLDHTSDKSLLDANFEPGKKNFLHLTDKDGEQPQILLEDSSAGEDSVHDRFIGPLPREGSGGSTSDYVSQSYSYSSILNKSETGYVGLVNQAMTCYLNSLLQTLFMTPEFRNALYKWEFEESEEDPVTSIPYQLQRLFVLLQTSKKRAIETTDVTRSFGWDSSEAWQQHDVQELCRVMFDALEQKWKQTEQADLINELYQGKLKDYVRCLECGYEGWRIDTYLDIPLVIRPYGSSQAFASVEEALHAFIQPEILDGPNQYFCERCKKKCDARKGLRFLHFPYLLTLQLKRFDFDYTTMHRIKLNDRMTFPEELDMSTFIDVEDEKSPQTESCTDSGAENEGSCHSDQMSNDFSNDDGVDEGICLETNSGTEKISKSGLEKNSLIYELFSVMVHSGSAAGGHYYACIKSFSDEQWYSFNDQHVSRITQEDIKKTHGGSSGSRGYYSSAFASSTNAYMLIYRLKDPARNAKFLEVDEYPEHIKNLVQKERELEEQEKRQREIERNTCKIKLFCLHPTKQVMMENKLEVHKDKTLKEAVEMAYKMMDLEEVIPLDCCRLVKYDEFHDYLERSYEGEEDTPMGLLLGGVKSTYMFDLLLETRKPDQVFQSYKPGEVMVKVHVVDLKAESVAAPITVRAYLNQTVTEFKQLISKAIHLPAETMRIVLERCYNDLRLLSVSSKTLKAEGFFRSNKVFVESSETLDYQMAFADSHLWKLLDRHANTIRLFVLLPEQSPVSYSKRTAYQKAGGDSGNVDDDCERVKGPVGSLKSVEAILEESTEKLKSLSLQQQQDGDNGDSSKSTETSDFENIESPLNERDSSASVDNRELEQHIQTSDPENFQSEERSDSDVNNDRSTSSVDSDILSSSHSSDTLCNADNAQIPLANGLDSHSITSSRRTKANEGKKETWDTAEEDSGTDSEYDESGKSRGEMQYMYFKAEPYAADEGSGEGHKWLMVHVDKRITLAAFKQHLEPFVGVLSSHFKVFRVYASNQEFESVRLNETLSSFSDDNKITIRLGRALKKGEYRVKVYQLLVNEQEPCKFLLDAVFAKGMTVRQSKEELIPQLREQCGLELSIDRFRLRKKTWKNPGTVFLDYHIYEEDINISSNWEVFLEVLDGVEKMKSMSQLAVLSRRWKPSEMKLDPFQEVVLESSSVDELREKLSEISGIPLDDIEFAKGRGTFPCDISVLDIHQDLDWNPKVSTLNVWPLYICDDGAVIFYRDKTEELMELTDEQRNELMKKESSRLQKTGHRVTYSPRKEKALKIYLDGAPNKDLTQD
B5: Charged multivesicular body protein 4a (protein, UniProt Q9BY43 1-222)
chain: MSGLGRLFGKGKKEKGPTPEEAIQKLKETEKILIKKQEFLEQKIQQELQTAKKYGTKNKRAALQALRRKKRFEQQLAQTDGTLSTLEFQREAIENATTNAEVLRTMELAAQSMKKAYQDMDIDKVDELMTDITEQQEVAQQISDAISRPMGFGDDVDEDELLEELEELEQEELAQELLNVGDKEEEPSVKLPSVPSTHLPAGPAPKVDEDEEALKQLAEWVS
B6: rRNA 2′-O-methyltransferase fibrillarin (enzyme, UniProt P22087 1-321)
chain: MKPGFSPRGGGFGGRGGFGDRGGRGGRGGFGGGRGRGGGFRGRGRGGGGGGGGGGGGGRGGGGFHSGGNRGRGRGGKRGNQSGKNVMVEPHRHEGVFICRGKEDALVTKNLVPGESVYGEKRVSISEGDDKIEYRAWNPFRSKLAAAILGGVDQIHIKPGAKVLYLGAASGTTVSHVSDIVGPDGLVYAVEFSHRSGRDLINLAKKRTNIIPVIEDARHPHKYRMLIAMVDVIFADVAQPDQTRIVALNAHTFLRNGGHFVISIKANCIDSTASAEAVFASEVKKMQQENMKPQEQLTLEPYERDHAVVVGVYRPPPKVKN
B7: Carbonyl reductase [NADPH] 1 (enzyme, UniProt P16152 1-277)
chain: MSSGIHVALVTGGNKGIGLAIVRDLCRLFSGDVVLTARDVTRGQAAVQQLQAEGLSPRFHQLDIDDLQSIRALRDFLRKEYGGLDVLVNNAGIAFKVADPTPFHIQAEVTMKTNFFGTRDVCTELLPLIKPQGRVVNVSSIMSVRALKSCSPELQQKFRSETITEEELVGLMNKFVEDTKKGVHQKEGWPSSAYGVTKIGVTVLSRIHARKLSEQRKGDKILLNACCPGWVRTDMAGPKATKSPEEGAETPVYLALLPPDAEGPHGQFVSEKRVEQW
B8: Rho-related GTP-binding protein Rho6 (protein, UniProt Q92730 1-232)
chain: MKERRAPQPVVARCKLVLVGDVQCGKTAMLQVLAKDCYPETYVPTVFENYTACLETEEQRVELSLWDTSGSPYYDNVRPLCYSDSDAVLLCFDISRPETVDSALKKWRTEILDYCPSTRVLLIGCKTDLRTDLSTLMELSHQKQAPISYEQGCAIAKQLGAEIYLEGSAFTSEKSIHSIFRTASMLCLNKPSPLPQKSPVRSLSKRLLHLPSRSELISSTFKKEKAKSCSIM
B9: Pleckstrin homology domain-containing family G member 2 (protein, UniProt Q9H7P9 1-1386)
chain: MPEGAQGLSLSKPSPSLGCGRRGEVCDCGTVCETRTAPAAPTMASPRGSGSSTSLSTVGSEGDPAPGPTPACSASRPEPLPGPPIRLHLSPVGIPGSARPSRLERVAREIVETERAYVRDLRSIVEDYLGPLLDGGVLGLSVEQVGTLFANIEDIYEFSSELLEDLENSSSAGGIAECFVQRSEDFDIYTLYCMNYPSSLALLRELSLSPPAALWLQERQAQLRHSLPLQSFLLKPVQRILKYHLLLQELGKHWAEGPGTGGREMVEEAIVSMTAVAWYINDMKRKQEHAARLQEVQRRLGGWTGPELSAFGELVLEGAFRGGGGGGPRLRGGERLLFLFSRMLLVAKRRGLEYTYKGHIFCCNLSVSESPRDPLGFKVSDLTIPKHRHLLQAKNQEEKRLWIHCLQRLFFENHPASIPAKAKQVLLENSLHCAPKSKPVLEPLTPPLGSPRPRDARSFTPGRRNTAPSPGPSVIRRGRRQSEPVKDPYVMFPQNAKPGFKHAGSEGELYPPESQPPVSGSAPPEDLEDAGPPTLDPSGTSITEEILELLNQRGLRDPGPSTHDIPKFPGDSQVPGDSETLTFQALPSRDSSEEEEEEEEGLEMDERGPSPLHVLEGLESSIAAEMPSIPCLTKIPDVPNLPEIPSRCEIPEGSRLPSLSDISDVFEMPCLPAIPSVPNTPSLSSTPTLSCDSWLQGPLQEPAEAPATRRELFSGSNPGKLGEPPSGGKAGPEEDEEGVSFTDFQPQDVTQHQGFPDELAFRSCSEIRSAWQALEQGQLARPGFPEPLLILEDSDLGGDSGSGKAGAPSSERTASRVRELARLYSERIQQMQRAETRASANAPRRRPRVLAQPQPSPCLPQEQAEPGLLPAFGHVLVCELAFPLTCAQESVPLGPAVWVQAAIPLSKQGGSPDGQGLHVSNLPKQDLPGIHVSAATLLPEQGGSRHVQAPAATPLPKQEGPLHLQVPALTTFSDQGHPEIQVPATTPLPEHRSHMVIPAPSTAFCPEQGHCADIHVPTTPALPKEICSDFTVSVTTPVPKQEGHLDSESPTNIPLTKQGGSRDVQGPDPVCSQPIQPLSWHGSSLDPQGPGDTLPPLPCHLPDLQIPGTSPLPAHGSHLDHRIPANAPLSLSQELPDTQVPATTPLPLPQVLTDIWVQALPTSPKQGSLPDIQGPAAAPPLPEPSLTDTQVQKLTPSLEQKSLIDAHVPAATPLPERGGSLDIQGLSPTPVQTTMVLSKPGGSLASHVARLESSDLTPPHSPPPSSRQLLGPNAAALSRYLAASYISQSLARRQGPGGGAPAASRGSWSSAPTSRASSPPPQPQPPPPPARRLSYATTVNIHVGGGGRLRPAKAQVRLNHPALLASTQESMGLHRAQGAPDAPFHM

The first assay concerns the target Flag-TSC22(86) (TSC22D1-3 fused with Flag) (human). The assay can be described thus: affinity purification with mass spectrometry; anti-FLAG M2-Agarose precipitation of Flag-TSC22(86) from whole cell extract of Flp-In T-REx 293 cells after 0.5 mM phleomycin for 12 h; washed with 50 mM HEPES pH 7.5, 150 mM NaCl, 0.1% NP-40; SDS-PAGE, silver stain, bands cut out for MS.
Regarding B1, the binding result is given as “binds”.
On to B2, for which the binding result was “binds”.
The same measure, in the same setting: with B3 the entry was “binds”; with B4, “binds”.

The target of another assay is T1, Flag-TSC-22 (full-length human TSC-22 (TSC22D1-2) fused with Flag) (human) (UniProt Q15714).
T1 sequence: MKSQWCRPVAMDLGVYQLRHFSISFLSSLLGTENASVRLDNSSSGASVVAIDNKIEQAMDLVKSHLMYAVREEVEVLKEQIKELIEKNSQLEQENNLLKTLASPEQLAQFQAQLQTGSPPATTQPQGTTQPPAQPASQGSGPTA
The experiment in a line: affinity purification with mass spectrometry; anti-FLAG M2-Agarose precipitation of Flag-TSC-22 from the nuclear fraction of Flp-In T-REx 293 cells, with or without 0.5 mM phleomycin for 12 h (binding proteins found after DNA damage); washed with 50 mM HEPES pH 7.5, 150 mM NaCl, 0.1% NP-40; SDS-PAGE, silver stain, bands cut out for MS.
Consider “Histone H1.2 (from UniProt P16403 1-213)”, for which the binding entry is “binds”.
The same measure, in the same setting: to “Pituitary adenylate cyclase-activating polypeptide type I receptor (from UniProt P41586 21-468)” belongs “binds”; to Lamin-B1 (from UniProt P20700 1-586), “binds”.
Still for that read-out and setting: to B5 belongs “binds”; to B6, “binds”.

In another assay the target is T2, GST-TSC-22 (glutathione S-transferase fused to full-length human TSC-22 (TSC22D1-2)) (human) (UniProt Q15714).
T2 sequence: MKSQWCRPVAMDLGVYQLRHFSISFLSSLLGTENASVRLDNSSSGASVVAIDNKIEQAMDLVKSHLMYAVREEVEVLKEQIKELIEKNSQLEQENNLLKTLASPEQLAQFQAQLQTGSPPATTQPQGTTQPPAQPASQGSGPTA
The experiment in a line: affinity purification with mass spectrometry; GST-TSC-22 on Glutathione Sepharose 4B beads incubated with TYS whole cell extract at 4 °C for 6-12 h; washed with 50 mM HEPES pH 7.2, 150 mM NaCl, 0.2% NP-40; eluted with 1.2 M NaCl; SDS-PAGE, silver stain, bands cut out for nanoLC/MS/MS; only the target purified.
Consider “Elongation factor 1-gamma (from UniProt P26641 1-437)”, for which the binding entry is listed as “binds”.
Same read-out and setting: to “Keratin, type II cytoskeletal 1 (from TYS cells) (from UniProt P04264 1-644)” belongs “binds”; to B7, “binds”.
Same read-out and setting: to B8 belongs “binds”; to B9, “binds”.
